In patent US20120214173A1, “Methods of Identifying Modulators of an Ehd Polypeptide” (priority 2007, published 2012):
These are yes or no findings as the source states them, for the method shown. Some entries that bind do so weakly or less than the wild type.

Molecular target: T1, isolated EH-domain of EHD2 (mouse, UniProt Q8BH64 443-543, limits assumed)
T1 construct: domain: EH-domain; ITC buffer contained 200 µM CaCl2
T1 sequence (looked up): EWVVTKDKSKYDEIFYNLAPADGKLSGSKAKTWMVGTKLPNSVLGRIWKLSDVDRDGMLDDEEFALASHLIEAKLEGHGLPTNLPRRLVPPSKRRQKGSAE
Assay: ITC

**Q.** With KLNPFGNT (also called side site NPF peptide) [peptide 124-KLNPFGNT from EHD2] as the binder, how does the binding read?
**A.** binds
